Reference: PubChem BioAssay AID743121 (NCATS, 2013)
Screen: 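Partners whose loss is lethal together with topoisomerase I blockade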 (primary screen). Cells: MDA-MB-231 cells, a human breast cancer line. Reagent: single siRNA against human genes, 20 nM siRNA (0.8 pmol per well). Time to read-out: 120 h (drug added 48 h after transfection, read 72 h later). Challenge: camptothecin 20 nM (about EC30) for 72 h; vehicle 0.1% DMSO in parallel plates. Measured: 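CellTiter-Glo ATP signal, scaled to control siRNA as percent viability; sensitisation given as log2 of untreated divided by camptothecin-treated viability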. Direction: log2 vehicle/camptothecin viability: higher = stronger sensitisation to camptothecin. Call rule: 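Active genes have an RSA gene-level p-value below 0.001, computed from the ratios of their separate siRNAs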.
Here is an unselected part of about 26,000 reagents tested. In the full data, 167 (0.63%) got an active call. 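Calls are per gene from RSA p-values that are not deposited; an individual active-marked siRNA can sensitise only weakly.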 Entries without a mark were called inactive. The numbers tell different reagents against one gene apart. Further read-outs or replicates are left out here.

For G6PD (GeneID 2539) #1 the deposit lists log2 vehicle/camptothecin viability -0.27. For G6PD (GeneID 2539) #2, the entry reads log2 vehicle/camptothecin viability 0.307. For G6PD (GeneID 2539) #3, the entry reads log2 vehicle/camptothecin viability 0.0702. Depletion of G6PD (GeneID 2539) #4 came out at: log2 vehicle/camptothecin viability -0.219. With knock-down of TMEM176B (GeneID 28959) #1 the results were log2 vehicle/camptothecin viability -0.107. Depletion of TMEM176B (GeneID 28959) #2 gave: log2 vehicle/camptothecin viability 0.183.

Depletion of TMEM176B (GeneID 28959) #3 resulted in: log2 vehicle/camptothecin viability -0.31. For TMEM176B (GeneID 28959) #4, the values are log2 vehicle/camptothecin viability 0.315. For CDC20 (GeneID 991) #1 the deposit lists log2 vehicle/camptothecin viability 0.908. Depletion of CDC20 (GeneID 991) #2 resulted in: log2 vehicle/camptothecin viability -0.179. After knock-down of CDC20 (GeneID 991) #3, the record shows log2 vehicle/camptothecin viability -0.145. Depletion of CDC20 (GeneID 991) #4 came out at: log2 vehicle/camptothecin viability -0.154.

For STK10 (GeneID 6793) #1, the values are log2 vehicle/camptothecin viability -0.0694. Depletion of STK10 (GeneID 6793) #2 gave: log2 vehicle/camptothecin viability -0.115. Depletion of STK10 (GeneID 6793) #3 gave: log2 vehicle/camptothecin viability -0.0941. Against STK10 (GeneID 6793) #4, the entry reads log2 vehicle/camptothecin viability -0.178. MCL1 (GeneID 4170) #1 gave log2 vehicle/camptothecin viability -0.334. After knock-down of MCL1 (GeneID 4170) #2 the results were log2 vehicle/camptothecin viability 0.698.

Knock-down of MCL1 (GeneID 4170) #3 came out at: log2 vehicle/camptothecin viability 0.387. LCT (GeneID 3938) #1 gave log2 vehicle/camptothecin viability -0.289. With knock-down of LCT (GeneID 3938) #2 the results were log2 vehicle/camptothecin viability -0.162. For LCT (GeneID 3938) #3, the entry reads log2 vehicle/camptothecin viability -0.101. Knock-down of LCT (GeneID 3938) #4 gave: log2 vehicle/camptothecin viability 0.0248. CHEK1 (GeneID 1111) #1 scored log2 vehicle/camptothecin viability 0.213 (active).

Knock-down of CHEK1 (GeneID 1111) #2 gave: log2 vehicle/camptothecin viability 0.224 (active). CHEK1 (GeneID 1111) #3 showed log2 vehicle/camptothecin viability 0.19 (active). CHEK1 (GeneID 1111) #4 gave log2 vehicle/camptothecin viability 0.249 (active). Against PRSS38 (GeneID 339501) #1, the values are log2 vehicle/camptothecin viability -0.236. Silencing of PRSS38 (GeneID 339501) #2 gave: log2 vehicle/camptothecin viability 0.502. PRSS38 (GeneID 339501) #3 scored log2 vehicle/camptothecin viability -0.151.

After knock-down of PRSS38 (GeneID 339501) #4, the record shows log2 vehicle/camptothecin viability -0.13. Against CD300E (GeneID 342510) #1, the entry reads log2 vehicle/camptothecin viability 0.23. With knock-down of CD300E (GeneID 342510) #2, the screen gave log2 vehicle/camptothecin viability -0.0739. Knock-down of CD300E (GeneID 342510) #3 came out at: log2 vehicle/camptothecin viability -0.245. CD300E (GeneID 342510) #4 showed log2 vehicle/camptothecin viability -0.511.

A stretch from the list above, as a working copy:
STK10 (GeneID 6793) #3: log2 vehicle/camptothecin viability = -0.0941
STK10 (GeneID 6793) #4: log2 vehicle/camptothecin viability = -0.178
MCL1 (GeneID 4170) #1: log2 vehicle/camptothecin viability = -0.334
MCL1 (GeneID 4170) #2: log2 vehicle/camptothecin viability = 0.698
MCL1 (GeneID 4170) #3: log2 vehicle/camptothecin viability = 0.387
